Our source for the binding values is article doi:10.1101/2024.12.16.627577.

Protein sequences, listed by entry. Tags and fused reporters are not part of them.
UniProt P63044: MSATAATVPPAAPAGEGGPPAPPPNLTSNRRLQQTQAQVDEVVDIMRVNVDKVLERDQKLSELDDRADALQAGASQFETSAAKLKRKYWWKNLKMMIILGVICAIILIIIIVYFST

Assay in all cases: co-IP
The target of assay [1] is T1, Syntaxin 8 (mouse) (mouse (endogenous in iBMDMs)) (UniProt O88983).
T1 sequence: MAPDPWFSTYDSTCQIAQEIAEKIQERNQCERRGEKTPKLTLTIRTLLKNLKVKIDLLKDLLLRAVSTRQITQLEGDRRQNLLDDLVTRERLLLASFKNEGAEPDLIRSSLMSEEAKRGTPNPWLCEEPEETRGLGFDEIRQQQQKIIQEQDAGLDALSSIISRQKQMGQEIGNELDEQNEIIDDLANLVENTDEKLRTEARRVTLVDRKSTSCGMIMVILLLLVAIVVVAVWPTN

For assay [2], the target named is T2, Vesicle Transport through Interaction with t-SNAREs 1B (mouse) (mouse (endogenous in iBMDMs)) (UniProt O88384).
T2 sequence: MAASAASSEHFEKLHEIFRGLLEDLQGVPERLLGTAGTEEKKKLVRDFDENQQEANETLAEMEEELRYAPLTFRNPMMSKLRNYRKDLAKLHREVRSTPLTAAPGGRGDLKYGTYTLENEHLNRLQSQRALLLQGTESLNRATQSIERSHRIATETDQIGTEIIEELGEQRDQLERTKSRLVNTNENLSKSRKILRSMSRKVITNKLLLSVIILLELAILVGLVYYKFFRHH

The target in assay [3] is T1, Syntaxin 8 (mouse) (mouse (endogenous in iBMDMs)). This is another data set of the same source.
Assay [4] deals with T2, Vesicle Transport through Interaction with t-SNAREs 1B (mouse) (mouse (endogenous in iBMDMs)). The source holds these as a separate data set.
Assay [5] concerns the target T3, Syntaxin 8 (human) (human (endogenous in THP-1)), Q9UNK0.
T3 chain: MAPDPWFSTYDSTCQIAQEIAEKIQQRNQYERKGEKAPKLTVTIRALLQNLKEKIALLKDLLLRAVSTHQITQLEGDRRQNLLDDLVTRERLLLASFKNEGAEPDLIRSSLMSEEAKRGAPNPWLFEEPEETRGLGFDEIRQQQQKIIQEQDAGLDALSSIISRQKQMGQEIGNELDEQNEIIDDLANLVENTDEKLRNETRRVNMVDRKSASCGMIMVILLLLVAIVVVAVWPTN
The conditions noted are these: remark: other sources report otherwise.

Like-named read-outs stand apart in the source and are kept apart here. No constants are given. Whether binding was seen depends on the method and setting. In cells and extracts the contact can be indirect. Some binding calls cover weakened binding; strength is not graded here.

As for “Vesicle Associated Membrane Protein 2 (mouse) (from UniProt P63044 1-116)”, the binding result in assay [1], in assay [2], in assay [3] and in assay [4] was “binds” each time.

B1: VAMP8 (mouse) (protein, UniProt O70404 1-101)
chain: MEEASGSAGNDRVRNLQSEVEGVKNIMTQNVERILSRGENLDHLRNKTEDLEATSEHFKTTSQKVARKFWWKNVKMIVIICVIVLIIVILIILFATGTIPT
Consider B1, for which the binding entry in assay [1], in assay [2], in assay [3] and in assay [4] was “binds” each time.

B2: VAMP8 (human), Q9BV40 1-100 (protein)
chain: MEEASEGGGNDRVRNLQSEVEGVKNIMTQNVERILARGENLEHLRNKTEDLEATSEHFKTTSQKVARKFWWKNVKMIVLICVIVFIIILFIVLFATGAFS
B2: the binding result in assay [5] is given as “binds”.

B3: Vesicle Transport through Interaction with t-SNAREs 1B (mouse) (protein, UniProt O88384 1-232)
chain: T2 sequence
Consider B3, for which the binding entry in assay [1] is recorded as “binds”.
